For at least one compound, name, drawing or mass did not settle the structure.
How the values were obtained:
hippocampal neurons = assay: Indirect neurotoxicity of conditioned medium from AβO-treated microglia on hippocampal neurons; assay type: cell-based, mouse; conditions: 25% CM, 24 hrs
hippocampal slices = assay: AβO-treated organotypic hippocampal slice cultures; assay type: cell-based, mouse
Procedure: Hippocampal slice cultures (400 μm-thick) were prepared from 7-day-old C57BL/6J mice as previously described (25) and cultured for 10 days in vitro before use. Neuronal damage in the slices was monitored by PI uptake following Bernardino et al (27). PI itself is not toxic to neurons (27). […] After 24 hrs, the slices were observed under a Nikon Eclipse E600 microscope and the red (630 nm) fluorescence emitted by PI taken up by damaged cells was photographed by a digital camera (SPOT RTke, SPOT Diagnostics, Sterling Heights, Mich.) with fixed exposure time.
For immunofluorescent staining of neurons, cultures were fixed in 4% paraformaldehyde and stained with anti-PSD95 (1:200, Cell Signaling), anti-MAP2 (1:500, Chemicon) and anti-acetylated α-tubulin (1:250, Zymed). For immunofluorescent staining of microglia, cultures or hippocampal slices were fixed in 4% paraformaldehyde and stained with anti-IBA1 (1:500, Wako Chemicals USA), anti-SRA (E-20, 1:200, Santa Cruz Biotechnology), and anti-CD11b (1:200, AbD Serotec USA, Raleigh, N.C.). The fixed cells or hippocampal slices were incubated with antibodies for overnight at 4° C. followed by secondary Alexa488 conjugated anti-mouse or Alexa568 conjugated anti-rabbit antibody (1:700, Molecular probes). Immunostained images were observed under a Nikon Eclipse E600 microscope and photographed by a digital camera (SPOT RTke, SPOT Diagnostics, Sterling Heights, Mich.).
(§1) To obtain lysates, cells or tissues were washed with ice-cold PBS and incubated with a buffer containing 50 mmol/L Tris-HCl (pH 7.4), 150 mmol/L NaCl, 2% SDS, proteinase inhibitor cocktail (Sigma), and phosphatase inhibitor cocktail (Sigma). Lysates were briefly sonncated and cleared by centrifugation at 50,000 rpm for 10 min. Equivalent amounts of protein were analyzed by Tris/HCL gel electrophoresis. Proteins were transferred to polyvinylidene difluoride membranes and probed with antibodies. Visualization was performed using enhanced chemiluminescence (ECL, Amersham Pharmacia, Piscataway, N.J.).
Conditioned medium collected from microglia cultures (1×10^5/0.75 cm^2) and hippocampal slices treated with Aβ for 24 hrs were analyzed by the Nitric Oxide Quantization Kit according to the protocol of the manufacturer (Active Motif, Carlsbad, Calif.). Data were normalized to the amount of total protein.

Sequences of proteins named here, by UniProt entry; tags and fusion partners are left off. Residues count along the entry.
UniProt P05067, 672-713 limits assumed: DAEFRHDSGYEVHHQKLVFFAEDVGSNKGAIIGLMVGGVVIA

p38MAPK = p38MAPK phosphorylation in microglia (Western blot); assay type: cell-based, mouse; conditions: doxycycline 20 μM, TRAM-34 1 μM, FIG. 2D
Procedure: Primary microglia cultures derived from newborn C57BL/6J mice were prepared from mixed glia cultures with the “shaking off” method described by Maezawa, I., et al.; (2006) FASEB J 20, 797-799. […] To obtain conditioned medium (CM) for treating neurons, microglia were first cultured in 24-well culture plates at a density of 1.3×10^5 cells/cm^2 for 24 hrs in DMEM with 10% fetal bovine serum (DMEM10). Cultures were washed extensively and changed to the Neurobasal medium with B27 supplement (NB/B27, Invitrogen) without serum and cultured for another 24 hrs. The NB/B27-based microglia CMs were collected, briefly centrifuged, and used immediately or frozen for future uses.
as §1, with “N.J.). […]” for “N.J.).”

microglia [1] = assay: Assay for nitric oxide (nitrite) in microglia conditioned medium; assay type: cell-based, mouse; conditions: 24 hr
NFκB = NFκB assay in microglia; assay type: cell-based, mouse; conditions: 2 hrs; 20 μM doxycycline, 1 μM TRAM-34; FIG. 2E
Procedure: The detection of cells with active NFκB was performed according to the method described by Franciosi, S., et al.; (2006) J Neurosci 26, 11652-11664. Briefly, microglia were plated as described above and treated with activators for 2 hrs. Cells were fixed and stained with anti-NF-κBp65 antibody (1:250, Chemicon) and with the nuclear dye DAPI.

AβO = AβO (Homo sapiens, UniProt P05067); assay: Direct effect on AβO morphology, size, neurotoxic activity
microglia [2] = assay: AβO-induced microglia proliferation/activation (cell number); assay type: cell-based, mouse

Compound: C[C@H]1c2cccc(O)c2C(=O)C2=C(O)[C@]3(O)C(=O)C(C(N)=O)=C(O)[C@@H](N(C)C)[C@@H]3[C@@H](O)[C@@H]21 [doxycycline]
- dendritic morphology of neurons after CM from AβO-treated microglia co-incubated with inhibitor (hippocampal neurons): did not alter the dendritic morphology
- levels of Ac-TN, MAP2, PSD95, and GRIP1 after CM from AβO-treated microglia co-incubated with inhibitor (hippocampal neurons; Western blot): did not cause significant decreases
- AβO-CM-induced reduction of PSD95-immunoreactive puncta (hippocampal neurons; microglia co-treated with 20 μM doxycycline or 1 μM TRAM-34, FIG. 6D): prevented
- AβO-induced microglia activation in hippocampal slices (hippocampal slices; 20 nM AβO 24 hrs, co-treatment, FIG. 7A, 7C): substantially ameliorated
- AβO-induced NO production from hippocampal slices (hippocampal slices; 20 μM doxycycline, 1 μM TRAM-34, FIG. 7B): prevented
- AβO-enhanced PI uptake (neuronal damage) in hippocampal slices (hippocampal slices; 20 μM doxycycline, 1 μM TRAM-34, FIG. 7C): ameliorated
- AβO-induced reduction of dendritic and post-synaptic proteins in hippocampal slices (hippocampal slices; co-treatment, FIG. 7D): substantially ameliorated
- NO production from hippocampal slices, compound alone (hippocampal slices; without AβO): did not affect NO production
- LPS-induced p38MAPK phosphorylation (p38MAPK; LPS 100 ng/ml, 30 minutes): did not suppress
- AβO-induced p38MAPK phosphorylation (p38MAPK; microglia treated 30 minutes): did not suppress
- microglia NO production, compound alone (microglia [1]; without AβO): did not affect NO production
- AβO-induced increase of microglia NO production (microglia [1]; 20 μM doxycycline, 1 μM TRAM-34, FIG. 2F): prevented
- AβO-induced NFκB activation (p65-immunoreactive cells) (NFκB): prevented
- LPS-induced NFκB activation (NFκB): prevented
- effect on the morphology, size, or neurotoxic activities of AβO (AβO): no effect
- AβO-induced microglia activation / proliferation (microglia [2]; 20 nM AβO 24 hrs, 100 ng/ml poly I, 10 μg/ml E-20, 20 μM doxycycline, 1 μM TRAM-34, FIG. 3): able to inhibit
- microglia activation / mitogenic effect induced by human brain AβO (microglia [2]; soluble AD hippocampus extracts): blocked

— patent US20130281504A1, “Reduction of Microglia-Mediated Neurotoxicity by KCa3.1 Inhibition” (THE REGENTS OF THE UNIVERSITY OF CALIFORNIA, priority 2010, published 2013)
